# From PMC11535040
# Results are given in words; binding and its absence hold for the method and conditions named. Binding seen in cells or lysates may run through a third protein. Some entries that bind do so weakly or less than the wild type. Where a sequence is shown, tags or fusion partners need not be part of it.
# T1: endogenous Rad21 of HeLaK cells (human (endogenous in HeLaK)) (UniProt O60216)
# T1 sequence: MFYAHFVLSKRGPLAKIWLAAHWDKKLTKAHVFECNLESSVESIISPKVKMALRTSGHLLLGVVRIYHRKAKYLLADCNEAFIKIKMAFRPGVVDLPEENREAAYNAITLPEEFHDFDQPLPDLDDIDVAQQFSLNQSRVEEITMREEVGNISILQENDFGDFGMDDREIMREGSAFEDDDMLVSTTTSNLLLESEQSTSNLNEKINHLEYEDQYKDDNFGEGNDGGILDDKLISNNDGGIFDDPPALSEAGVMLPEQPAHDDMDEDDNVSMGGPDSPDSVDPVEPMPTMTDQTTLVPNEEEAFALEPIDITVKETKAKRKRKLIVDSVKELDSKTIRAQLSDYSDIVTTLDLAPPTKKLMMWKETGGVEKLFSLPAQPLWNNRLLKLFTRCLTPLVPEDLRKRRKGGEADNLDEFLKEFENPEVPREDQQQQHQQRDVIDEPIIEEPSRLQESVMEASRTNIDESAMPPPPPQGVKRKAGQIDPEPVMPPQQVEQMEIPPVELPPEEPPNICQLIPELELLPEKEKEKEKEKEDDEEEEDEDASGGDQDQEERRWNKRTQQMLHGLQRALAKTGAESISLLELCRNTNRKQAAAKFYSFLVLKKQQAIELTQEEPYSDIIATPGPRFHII
# Target: T1, endogenous Rad21 of HeLaK cells (human (endogenous in HeLaK))
# Assay: co-IP; Rad21-IP (guinea pig anti-Rad21 on protein A sepharose) from benzonase-treated chromatin of prometaphase HeLaK cells expressing Nek2aΔMR and Flag-tagged Pds5b-WT; washes with additional 250 mM NaCl; immunoblotting
row,Binder,binding
1,"endogenous Pds5b of HeLaK cells (protein, UniProt Q9NTI5 1-1447) MAHSKTRTNDGKITYPPGVKEISDKISKEEMVRRLKMVVKTFMDMDQDSEEEKELYLNLALHLASDFFLKHPDKDVRLLVACCLADIFRIYAPEAPYTSPDKLKDIFMFITRQLKGLEDTKSPQFNRYFYLLENIAWVKSYNICFELEDSNEIFTQLYRTLFSVINNGHNQKVHMHMVDLMSSIICEGDTVSQELLDTVLVNLVPAHKNLNKQAYDLAKALLKRTAQAIEPYITNFFNQVLMLGKTSISDLSEHVFDLILELYNIDSHLLLSVLPQLEFKLKSNDNEERLQVVKLLAKMFGAKDSELASQNKPLWQCYLGRFNDIHVPIRLECVKFASHCLMNHPDLAKDLTEYLKVRSHDPEEAIRHDVIVSIVTAAKKDILLVNDHLLNFVRERTLDKRWRVRKEAMMGLAQIYKKYALQSAAGKDAAKQIAWIKDKLLHIYYQNSIDDRLLVERIFAQYMVPHNLETTERMKCLYYLYATLDLNAVKALNEMWKCQNLLRHQVKDLLDLIKQPKTDASVKAIFSKVMVITRNLPDPGKAQDFMKKFTQVLEDDEKIRKQLEVLVSPTCSCKQAEGCVREITKKLGNPKQPTNPFLEMIKFLLERIAPVHIDTESISALIKQVNKSIDGTADDEDEGVPTDQAIRAGLELLKVLSFTHPISFHSAETFESLLACLKMDDEKVAEAALQIFKNTGSKIEEDFPHIRSALLPVLHHKSKKGPPRQAKYAIHCIHAIFSSKETQFAQIFEPLHKSLDPSNLEHLITPLVTIGHIALLAPDQFAAPLKSLVATFIVKDLLMNDRLPGKKTTKLWVPDEEVSPETMVKIQAIKMMVRWLLGMKNNHSKSGTSTLRLLTTILHSDGDLTEQGKISKPDMSRLRLAAGSAIVKLAQEPCYHEIITLEQYQLCALAINDECYQVRQVFAQKLHKGLSRLRLPLEYMAICALCAKDPVKERRAHARQCLVKNINVRREYLKQHAAVSEKLLSLLPEYVVPYTIHLLAHDPDYVKVQDIEQLKDVKECLWFVLEILMAKNENNSHAFIRKMVENIKQTKDAQGPDDAKMNEKLYTVCDVAMNIIMSKSTTYSLESPKDPVLPARFFTQPDKNFSNTKNYLPPEMKSFFTPGKPKTTNVLGAVNKPLSSAGKQSQTKSSRMETVSNASSSSNPSSPGRIKGRLDSSEMDHSENEDYTMSSPLPGKKSDKRDDSDLVRSELEKPRGRKKTPVTEQEEKLGMDDLTKLVQEQKPKGSQRSRKRGHTASESDEQQWPEEKRLKEDILENEDEQNSPPKKGKRGRPPKPLGGGTPKEEPTMKTSKKGSKKKSGPPAPEEEEEEERQSGNTEQKSKSKQHRVSRRAQQRAESPESSAIESTQSTPQKGRGRPSKTPSPSQPKKNVRVGRSKQAATKENDSSEEVDVFQGSSPVDDIPQEETEEEEVSTVNVRRRSAKRERR",binds
2,"Flag-tagged Pds5b-WT expressed in HeLaK cells (protein, UniProt Q9NTI5 1-1447) MAHSKTRTNDGKITYPPGVKEISDKISKEEMVRRLKMVVKTFMDMDQDSEEEKELYLNLALHLASDFFLKHPDKDVRLLVACCLADIFRIYAPEAPYTSPDKLKDIFMFITRQLKGLEDTKSPQFNRYFYLLENIAWVKSYNICFELEDSNEIFTQLYRTLFSVINNGHNQKVHMHMVDLMSSIICEGDTVSQELLDTVLVNLVPAHKNLNKQAYDLAKALLKRTAQAIEPYITNFFNQVLMLGKTSISDLSEHVFDLILELYNIDSHLLLSVLPQLEFKLKSNDNEERLQVVKLLAKMFGAKDSELASQNKPLWQCYLGRFNDIHVPIRLECVKFASHCLMNHPDLAKDLTEYLKVRSHDPEEAIRHDVIVSIVTAAKKDILLVNDHLLNFVRERTLDKRWRVRKEAMMGLAQIYKKYALQSAAGKDAAKQIAWIKDKLLHIYYQNSIDDRLLVERIFAQYMVPHNLETTERMKCLYYLYATLDLNAVKALNEMWKCQNLLRHQVKDLLDLIKQPKTDASVKAIFSKVMVITRNLPDPGKAQDFMKKFTQVLEDDEKIRKQLEVLVSPTCSCKQAEGCVREITKKLGNPKQPTNPFLEMIKFLLERIAPVHIDTESISALIKQVNKSIDGTADDEDEGVPTDQAIRAGLELLKVLSFTHPISFHSAETFESLLACLKMDDEKVAEAALQIFKNTGSKIEEDFPHIRSALLPVLHHKSKKGPPRQAKYAIHCIHAIFSSKETQFAQIFEPLHKSLDPSNLEHLITPLVTIGHIALLAPDQFAAPLKSLVATFIVKDLLMNDRLPGKKTTKLWVPDEEVSPETMVKIQAIKMMVRWLLGMKNNHSKSGTSTLRLLTTILHSDGDLTEQGKISKPDMSRLRLAAGSAIVKLAQEPCYHEIITLEQYQLCALAINDECYQVRQVFAQKLHKGLSRLRLPLEYMAICALCAKDPVKERRAHARQCLVKNINVRREYLKQHAAVSEKLLSLLPEYVVPYTIHLLAHDPDYVKVQDIEQLKDVKECLWFVLEILMAKNENNSHAFIRKMVENIKQTKDAQGPDDAKMNEKLYTVCDVAMNIIMSKSTTYSLESPKDPVLPARFFTQPDKNFSNTKNYLPPEMKSFFTPGKPKTTNVLGAVNKPLSSAGKQSQTKSSRMETVSNASSSSNPSSPGRIKGRLDSSEMDHSENEDYTMSSPLPGKKSDKRDDSDLVRSELEKPRGRKKTPVTEQEEKLGMDDLTKLVQEQKPKGSQRSRKRGHTASESDEQQWPEEKRLKEDILENEDEQNSPPKKGKRGRPPKPLGGGTPKEEPTMKTSKKGSKKKSGPPAPEEEEEEERQSGNTEQKSKSKQHRVSRRAQQRAESPESSAIESTQSTPQKGRGRPSKTPSPSQPKKNVRVGRSKQAATKENDSSEEVDVFQGSSPVDDIPQEETEEEEVSTVNVRRRSAKRERR",binds
